Tested on: mice
Assay: Motor incoordinating activity (rotating rod)
Format: in vivo, mouse (ddY-type male mice)
Settings: Mus musculus, 0.05 h, PO, 5.5 rpm, within 3 minutes, read-out: ED50 motor incoordination, rotating rod
Procedure: In the following tests, the pharmacological actions of the compounds were tested by using six mice (ddY-type male mice) for each dosage level, and ED50 values were determined. In the determination of ED50 values, the dosages of the test compounds were increased or decreased by a common ratio of 3 as required, and 3 or 4 dosage levels were used. The calculation of the ED50 values was made on the basis of the Litchfield-Wilcoxon method [J. Pharmacol. Exp. Therap., 96, 99 (1949)].
(6) Motor incoordinating activity
Mice which could stay for more than 3 minutes on a rotating rod having a diameter of 3.0 cm and rotating at a speed of 5.5 rpm. The subjects were orally administered with the test compound, and then at intervals of 30 minutes, they were placed on the rotating rod. Examination was made as to whether they slipped down within 3 minutes.

CN1C(=O)CN=C(c2ccccc2)c2cc(Cl)ccc21 [Diazepam, reference compound] showed an ED50 of 5.4 mg/kg.

— US4169150A, “Benzodiazepine derivatives and pharmaceutical compositions containing said derivatives” (Teijin Limited, priority 1975, dated 1979)
